The target in experiment [1] is PGE2 receptor EP4 (mouse (endogenous in peritoneal macrophages and Raw264.7)) (UniProt P32240). The experiment in a line: co-IP; endogenous proteins of peritoneal macrophages (PMs) of normal and CIA mice; standard protocol of ref. 16; which protein was precipitated is not told.
For experiment [2] the target is unchanged. The experiment can be described thus: co-IP; endogenous proteins of Raw264.7 cells: M0 (not induced), M1 (TNF-alpha and IFN-gamma, 24 h) and M2 (IL-4, 24 h); standard protocol of ref. 16; which protein was precipitated is not told.

The chains behind the UniProt entries cited, without tags or fusion partners.
UniProt P32240: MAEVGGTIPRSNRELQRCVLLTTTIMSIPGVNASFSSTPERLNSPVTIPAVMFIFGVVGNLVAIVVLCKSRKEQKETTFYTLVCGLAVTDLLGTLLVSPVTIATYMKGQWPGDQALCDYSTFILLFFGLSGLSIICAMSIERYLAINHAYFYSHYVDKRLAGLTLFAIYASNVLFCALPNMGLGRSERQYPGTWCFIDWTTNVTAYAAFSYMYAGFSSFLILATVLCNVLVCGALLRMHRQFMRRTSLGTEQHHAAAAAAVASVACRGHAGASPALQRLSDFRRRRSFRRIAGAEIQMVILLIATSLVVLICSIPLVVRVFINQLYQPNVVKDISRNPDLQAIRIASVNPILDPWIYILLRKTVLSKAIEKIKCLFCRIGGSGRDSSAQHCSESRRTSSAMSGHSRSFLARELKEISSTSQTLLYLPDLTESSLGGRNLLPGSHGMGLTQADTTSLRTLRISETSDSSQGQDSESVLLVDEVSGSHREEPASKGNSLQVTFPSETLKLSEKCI
UniProt Q99MK8: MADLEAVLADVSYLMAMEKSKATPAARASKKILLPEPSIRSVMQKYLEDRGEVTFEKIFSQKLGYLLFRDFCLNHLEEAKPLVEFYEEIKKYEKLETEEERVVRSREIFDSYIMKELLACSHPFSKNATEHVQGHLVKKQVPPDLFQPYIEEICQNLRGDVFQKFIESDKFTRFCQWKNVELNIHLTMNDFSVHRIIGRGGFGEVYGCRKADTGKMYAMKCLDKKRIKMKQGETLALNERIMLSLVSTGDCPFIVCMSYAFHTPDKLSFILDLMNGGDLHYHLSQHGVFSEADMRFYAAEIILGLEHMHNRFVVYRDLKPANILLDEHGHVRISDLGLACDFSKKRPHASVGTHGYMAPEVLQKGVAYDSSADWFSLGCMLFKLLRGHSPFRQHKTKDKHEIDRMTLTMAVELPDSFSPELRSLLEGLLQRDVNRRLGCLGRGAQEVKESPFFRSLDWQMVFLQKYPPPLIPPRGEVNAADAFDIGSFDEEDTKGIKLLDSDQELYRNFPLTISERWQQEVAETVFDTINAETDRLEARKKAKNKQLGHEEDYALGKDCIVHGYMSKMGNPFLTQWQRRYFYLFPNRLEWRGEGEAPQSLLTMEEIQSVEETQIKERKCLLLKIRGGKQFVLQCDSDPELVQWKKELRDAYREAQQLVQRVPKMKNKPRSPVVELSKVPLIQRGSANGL

These are yes or no findings as the source states them, for the method shown. Binding seen in cells or lysates may run through a third protein. Some entries that bind do so weakly or less than the wild type.

For the sequence “G protein-coupled receptor kinase 2 (from UniProt Q99MK8 1-689) (enzyme)”, the binding entry in experiment [1] and in experiment [2] was “binds” in each case.

Source of the values: publication PMC6953022.
